Reference: paper PMC10742126
These are yes or no findings as the source states them, for the method shown. In cells and extracts the contact can be indirect. Some binding calls cover weakened binding; strength is not graded here.

The chains behind the UniProt entries cited, without tags or fusion partners.
UniProt P40763: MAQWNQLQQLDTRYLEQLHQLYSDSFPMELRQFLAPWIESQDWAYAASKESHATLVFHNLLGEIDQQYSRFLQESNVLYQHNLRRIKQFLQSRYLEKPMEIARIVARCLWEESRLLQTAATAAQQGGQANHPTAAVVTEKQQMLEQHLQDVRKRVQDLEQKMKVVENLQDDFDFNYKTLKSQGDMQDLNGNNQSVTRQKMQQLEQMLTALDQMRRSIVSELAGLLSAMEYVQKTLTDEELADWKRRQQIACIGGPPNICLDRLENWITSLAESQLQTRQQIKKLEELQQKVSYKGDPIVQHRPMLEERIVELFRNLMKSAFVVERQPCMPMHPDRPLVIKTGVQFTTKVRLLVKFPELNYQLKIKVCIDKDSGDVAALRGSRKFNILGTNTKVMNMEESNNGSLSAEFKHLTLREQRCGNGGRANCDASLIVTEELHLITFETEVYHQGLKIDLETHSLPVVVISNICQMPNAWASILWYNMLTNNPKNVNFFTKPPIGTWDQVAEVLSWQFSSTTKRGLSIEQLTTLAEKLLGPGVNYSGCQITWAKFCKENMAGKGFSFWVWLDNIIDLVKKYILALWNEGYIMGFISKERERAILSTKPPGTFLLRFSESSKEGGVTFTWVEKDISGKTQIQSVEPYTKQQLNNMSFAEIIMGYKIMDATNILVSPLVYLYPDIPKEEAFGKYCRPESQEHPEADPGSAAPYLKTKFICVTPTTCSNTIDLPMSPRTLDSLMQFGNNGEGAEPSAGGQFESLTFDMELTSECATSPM
UniProt P84022: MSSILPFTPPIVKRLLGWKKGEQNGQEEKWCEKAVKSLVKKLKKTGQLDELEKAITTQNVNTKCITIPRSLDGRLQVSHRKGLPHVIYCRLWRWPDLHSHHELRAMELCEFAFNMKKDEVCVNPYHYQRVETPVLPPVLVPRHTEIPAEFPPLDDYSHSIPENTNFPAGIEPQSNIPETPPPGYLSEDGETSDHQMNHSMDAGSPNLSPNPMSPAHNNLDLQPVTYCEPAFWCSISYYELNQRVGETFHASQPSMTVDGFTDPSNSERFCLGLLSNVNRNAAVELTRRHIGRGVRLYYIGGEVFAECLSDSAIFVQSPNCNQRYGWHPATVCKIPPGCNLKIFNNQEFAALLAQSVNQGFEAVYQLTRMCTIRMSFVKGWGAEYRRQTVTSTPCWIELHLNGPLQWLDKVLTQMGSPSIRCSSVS

Biological target: STAT3 (human (endogenous in HNSCC cells)) (UniProt P40763)
Test: co-IP; immunoprecipitation with anti-STAT3, blot for SMAD3; HNSCC cells after SOX2-OT overexpression

Substance: SMAD3 (from UniProt P84022 1-425)
- binding: binds
